Common to all, as to type: cell-based
One experiment has as its system CEM (leukaemic) cells. The experiment in a line: Cell viability / cytotoxic activity, ATP Vialite assay, CEM cells. The conditions noted are these: Homo sapiens, CCRF-CEM. As for the experimental part: (§1) EC50 values for percentage viability (3-day exposure) were determined using 2 different methods, trypan blue staining and an ATP assay. Trypan blue staining relies on the ability of healthy cells with intact membranes to exclude dyes. As cells start to undergo programmed cell death membrane integrity becomes compromised allowing dye entry. The % cells staining positive for trypan blue relative to the total cell number therefore reflects % cell viability (% viability). Non-viable cells also lose the ability to regenerate ATP. A specific ATP assay procedure using a 96-well plate-based approach (Vialite assay, Cambrex, UK) also measures cell viability, expressed relative to the ATP value in the control (untreated) cell population.
Effects against viable cell number have been determined using the ATP Vialite kit method (Cambrex, UK).

Experiment [1] relates to MCF7 (breast cancer) cells. Description: Cell viability, 3-day exposure, MCF7 cells. The conditions noted are these: Homo sapiens, 72 h, 3 day incubation, FIG. 3. The protocol:
as §1

Experiment [2] relates to panel of 8 lymphoma cell lines. Description: Cell viability (ATP) in a panel of 8 lymphoma cell lines. The note with it: ATP endpoint assay, read-out: EC50 values (range over the panel). The protocol: as §1
Experiment [3] deals with HCT116 (colorectal cancer) cells. The experiment in a line: Cell viability, 3-day exposure, HCT116 cells. The note with it: Homo sapiens, HCT-116, 72 h, 3 day incubation, FIG. 3. The protocol:
as §1

Broadly, the EC50 is the midpoint of the concentration-response curve. What is called IC50 is the concentration at which inhibition is half-maximal. `O=C(CCCCCCC(=O)Nc1ccccc1)NO` [SAHA, suberoylanilide hydroxamic acid, reference compound]: the EC50 was 1.7 µM with CEM (leukaemic) cells (72 h, CEM cells, 3 day incubation, FIG. 3); 1.9 µM in experiment [1]; 0.76 to 1.28 µM in experiment [2]; 1 µM in experiment [3]. Moreover, in the experiment with CEM (leukaemic) cells (cytotoxic activity against CEM (leukaemic) cells, viable cell number, ATP Vialite kit, read-out: HDAC inhibitory IC50), the IC50 stood at 1.3 ± 0.29 µM.

Source of the values: patent US8110577B2, “Histone deacetylase inhibitors” (Queen Mary & Westfield College, priority 2006, dated 2012).
